# Measured values: PubChem BioAssay AID1487 (National Center for Advancing Translational Sciences (NCATS), 2009)
# Out of some 200,000 compounds screened, about 25 (0.01%) were called active. The shares of active, inactive and inconclusive entries below differ from those in the screen. Calls follow the shape of the dose curve; as a rule, active = well fitted inhibition curve with a large enough effect in the signal ratio, with a control signal flat (not every such curve was filed as active); inconclusive = small, poorly fitted or top-dose-only effect, or effect the other way, or a change in a side signal; inactive = flat fitted curve, though single readings scatter; the % refers to the signal ratio. A potency beside an inconclusive call is a rough fit, not a confirmed value.
# Assay: qHTS Assay for Modulators of Lamin A Splicing
# Details: HeLa LMNA splicing GFP/RFP minigene ratio, 48 h; ratio change, negative = inhibition: at 46.1 µM (top of the series) unless noted
# How it was run: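 S3 HeLa cells stably expressing lamin A-EGFP splicing minigene plus DsRed2, 600 cells/well, 48 h compound exposure at 37C. Laser-scanning cytometry; analysed as GFP (500-530 nm)/RFP (575-640 nm) total intensity ratio; 0.5% DMSO vehicle.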
# % is scaled to controls: 0 for no effect and ±100 for the full control effect; potency is read from the fitted curve at half-maximal effect.
SMILES,"ratio change, negative = inhibition",Potency
Cc1ccccc1C(=O)Nc1ccc(N2CCCC2)cc1,inactive: 0.371% [at 46 µM],
CC1CC(C)CN(C(=O)CCc2ccccc2)C1 (configuration not stated),inconclusive: 20.6% [at 46 µM],
Cn1nc(C(F)(F)F)c(/C=N/OC(=O)c2ccccc2)c1Sc1ccc(Cl)cc1,inconclusive: -31.4%,
COc1ccc(C)cc1NC(=O)N1CCC(CN2CCC(C)CC2)CC1,inactive: 8.25% [at 46 µM],
CC(C)c1ccc2oc(=O)cc(CN3CCN(c4ccc(F)cc4)CC3)c2c1,,"inconclusive: 35.5 µM [fluorescent, single point]"
COC(=O)C1=C(C)Nc2ncnn2C1c1ccc(C)o1 (configuration not stated),inactive: -8.63%,
O=S1(=O)CCC(NC(=S)NC2CCS(=O)(=O)C2)C1 (configuration not stated),inconclusive: -4.71%,
CC(=O)Nc1cc(C(=O)N2CCc3ccccc3C2)ccc1Sc1ccc(C)cc1,inconclusive: -44.1%,
COc1ccc2[nH]c(=O)c(-c3noc(-c4ccccc4)n3)cc2c1,inconclusive: 7.27%,
CCCNC(=O)CSc1nc2ccccc2c(=O)n1CCC,inconclusive: -5.03% [at 46 µM],
COc1ccccc1CNC(=O)Cn1c(=O)ccc2cc(S(=O)(=O)N3CCCC3)ccc21,inactive: -11.8% [at 46 µM],
O=C(NCc1cccnc1)c1cccnc1-c1nc2ccccc2s1,inactive: -3.83%,
COc1ccc(N2C3=C(CC4=C2CCCC4=O)C(=O)CCC3)cc1,inactive: 9.4%,
CC(C)(C)C(=O)n1nc(-c2ccccc2)oc1=O,inactive: 4.63%,
COc1ccc(Br)cc1CNC(=O)C1COc2ccccc2C1 (configuration not stated),inactive: 2.41% [at 46 µM],
O=C(O)CCCNS(=O)(=O)c1ccc2ccccc2c1,inactive: 5.61%,
O=C(CCS(=O)(=O)c1ccccc1)Nc1nccs1,,"inconclusive: 12.6 µM [falling, partial curve]"
COc1ccc(C2C(CC(=O)O)=C(O)C(=O)N2c2ccccc2)cc1 (configuration not stated),inconclusive: 17.4%,
O=C(N/N=C/c1ccc(C(=O)O)cc1)C1=NNC(c2ccccc2)(c2ccccc2)C1,inconclusive: -1.92% [at 9.22 µM],
Cc1cc(NC(=O)CSc2nc(CCC3CCCC3)nc3ccccc23)no1,,"inconclusive: 35.5 µM [inhibitor, single point]"
COc1ccc(C(=O)NCC(c2ccc3c(c2)OCO3)N2CCN(c3ccc(F)cc3)CC2)cc1 (configuration not stated),inconclusive: -26.6% [at 46 µM],

SMILES,"ratio change, negative = inhibition",Potency
CCc1cc2ccccc2nc1SCC(=O)Nc1cc(OC)c(OC)cc1C(=O)O,inconclusive: -36.8%,
O=C(CSc1nnc(-c2ccncc2)n1Cc1ccco1)Nc1nccs1,inactive: -10.9%,
CCOC(=O)c1c(C)sc(-c2c(-c3ccc(OC)c(F)c3)[nH]c3[nH]c(=O)[nH]c(=O)c23)c1O,inconclusive: 20.7% [at 46 µM],
O=C1CC(N2CCN(c3ccccc3)CC2)C(=O)N1c1ccc2c(c1)OCCO2 (configuration not stated),inactive: -3.25%,
CC1CCN(c2c(NCc3ccc(C(=O)N4CCN(C5CCCCC5)CC4)cc3)c(=O)c2=O)CC1,inactive: 3.45%,
CCOC(=O)N1CCN(C(=O)c2oc3ccc(S(=O)(=O)N4CC(C)CC(C)C4)cc3c2C)CC1 (configuration not stated),inactive: 6.47% [at 0.0737 µM],
CC(C)NC(=O)CSc1nc2ccccc2n1CC(=O)N(C(C)C)C(C)C,inactive: 12.1% [at 46 µM],
CCOCCCN(Cc1ccco1)C(=O)c1cc2c(=O)[nH]c3ccc(C)cc3c2s1,inconclusive: 13.8%,
N#Cc1ccc(N2Cc3ccccc3C2=NC(=O)c2cccnc2Cl)cc1,inconclusive: 3.43%,
O=C(NCc1cccs1)c1ccc(Cn2c(SCc3ccc(F)cc3)nc3cccnc32)cc1,inactive: -5.65% [at 46 µM],
CC(C)C(C)(C#N)NC(=O)CSc1nc2scc(-c3ccccc3)c2c(=O)[nH]1 (configuration not stated),inconclusive: -38.1%,
Cc1ccc(Cl)cc1N1CCN(C(=O)CN2C(=O)CSc3c2c(C)nn3-c2ccccc2)CC1,inconclusive: 1.84% [at 46 µM],
O=C(CSc1ccc2c(c1)OCCO2)Nc1ccc2c(c1)OCO2,,"inconclusive: 35.5 µM [falling, single point]"
c1ccc(-c2cnc(-c3ccccc3)nc2)cc1,inactive: -4.02%,
COCCCNC(=O)c1ccc(Cn2c(SCc3cccc(C)c3)nc3cccnc32)cc1,inconclusive: -20.3% [at 46 µM],
O=C(CCSc1nnc2scc(-c3ccccc3)n12)NCc1ccc2c(c1)OCO2,inactive: 5.12%,
O=C1CCCN1CCCn1cnc2c([nH]c3ccc(F)cc32)c1=O,inconclusive: 31.8% [at 46 µM],
C/C(=N\OCC(=O)Nc1ccc(Br)cc1)c1cccs1,inconclusive: 22.9% [at 46 µM],
O=C1C(=O)c2ccc(-c3ccccc3)cc2-c2ccccc21,,"inconclusive: 5.62 µM [cytotoxic, single point]"
CC(=O)N1CCC2(CC1)C/C(=N\NC(=S)Nc1ccccc1F)c1cc(O)ccc1O2,inactive: -27.1% [at 46 µM],
CC(=O)C1=C(O)C(=O)N(C2CCCCC2)C1c1ccccc1 (configuration not stated),inactive: -17.7%,

# Ordered by formula weight (largest number first): some entries from above.
SMILES,"ratio change, negative = inhibition",Potency
O=C(CSc1nnc(-c2ccncc2)n1Cc1ccco1)Nc1nccs1,inactive: -10.9%,
O=C1CCCN1CCCn1cnc2c([nH]c3ccc(F)cc32)c1=O,inconclusive: 31.8% [at 46 µM],
O=C(O)CCCNS(=O)(=O)c1ccc2ccccc2c1,inactive: 5.61%,
